Target: T1, LexA-(p38/JTV-1) (human, UniProt Q13155 1-312, limits assumed)
T1 construct: Yeast two-hybrid bait expressed in S. cerevisiae EGY48; also called fusion protein of p38/JTV-1 and LexA; pLexA-(p38/JTV-1); not shown: LexA protein encoded by pLex202 vector (Invitrogen)
T1 sequence: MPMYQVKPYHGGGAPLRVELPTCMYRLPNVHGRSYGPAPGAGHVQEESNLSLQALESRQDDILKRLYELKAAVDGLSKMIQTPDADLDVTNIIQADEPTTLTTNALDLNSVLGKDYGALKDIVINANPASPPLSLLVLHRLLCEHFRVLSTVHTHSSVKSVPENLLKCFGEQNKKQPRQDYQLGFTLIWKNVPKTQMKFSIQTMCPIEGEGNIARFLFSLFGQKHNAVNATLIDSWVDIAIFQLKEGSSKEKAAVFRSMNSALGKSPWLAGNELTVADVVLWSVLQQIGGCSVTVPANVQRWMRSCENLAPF
Assay: yeast two-hybrid (LexA system), blue colony on X-gal
Source text: Using the recombinant plasmids constructed in the above, Saccaromyces cerevisiae EGY48 (Clontech laboratories Inc. Estojak et al. (1995)) having a lacZ plasmid (p8op-LacZ) as a probe gene was transformed according to the known methods (Golemis, E. A., et al., In Current Protocols in Molecular Biology, 1994).

binding result: binds
B1: B42-FBP (FUSE-binding protein, amino acids 564 to 645) (other, human, UniProt Q96AE4 564-644, looked up)
chain: QTNGQGDQQNPAPAGQVDYTKAWEEYYKKMGQAVPAPTGAPPGGQPDYSAAWAEYYRQQAAYYAQTSPQGMPQHPPAPQGQ
notes: range 564-645; Yeast two-hybrid prey; also called pB42-FBP; not shown: B42 protein from pB42 vector (Invitrogen)
